From article PMC7268548, “A missense variant in specificity protein 6 (SP6) is associated with amelogenesis imperfecta”
The exact form of at least one protein or probe is not confirmed. The comparison behind a weaker result is the experiment's own reference, which may not be listed here. Tags and fusion partners may be left off the protein sequences shown.

Target: T1, SP6 wild type (Homo sapiens) (UniProt Q3SY56)
T1 sequence (looked up, limits assumed): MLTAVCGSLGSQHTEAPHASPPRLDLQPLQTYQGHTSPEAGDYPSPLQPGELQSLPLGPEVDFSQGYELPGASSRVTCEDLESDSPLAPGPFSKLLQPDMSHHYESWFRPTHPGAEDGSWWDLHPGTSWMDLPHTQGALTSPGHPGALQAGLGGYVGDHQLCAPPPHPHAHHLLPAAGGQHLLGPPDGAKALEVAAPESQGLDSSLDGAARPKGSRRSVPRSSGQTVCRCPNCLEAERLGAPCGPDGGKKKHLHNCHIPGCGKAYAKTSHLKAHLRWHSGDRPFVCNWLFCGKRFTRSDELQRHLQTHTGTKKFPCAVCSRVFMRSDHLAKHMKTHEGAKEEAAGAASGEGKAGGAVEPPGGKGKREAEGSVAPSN
Assay: SPR
Conditions: low signal, Biacore 3000 SPR, 10 mM HEPES pH 7.5, 200 mM NaCl, 0.01% surfactant P-20, 25 C, 40 uL/min, protein 6.25-400 nM, DNA on SA chip, recombinant protein, protein details: N-terminal His-GST, label: 5'-biotin on forward strand

Sequence | binding result (max 16 RU at 400 nM) | binding result (max 29 RU at 400 nM)
CCCGCCCACCTCACCGCCCCGCCCCACCCCACCCTGCGGA (double strand) [ROCK1 promoter probe] | binds more weakly | 
CAATCTAGTTTAGCCCCCCGCCCCACCCTCGCTGACCTAA (double strand) [CA3 promoter probe] |  | binds more weakly
